Measurements taken from US7612250B2, “Nuclear transfer embryo formation method” (Trustees of Tufts College, priority 2002, dated 2009).
Where two headings read alike, the source gives them in different places. Marks after values point to notes of the source that are not given here.

Legend:
[1] = tested on: B6D2F1 and CF-1 mouse oocytes
[2] = tested on: B6D2F1 and CF-1 mouse oocytes; remark: listed apart in the source
[3] = tested on: B6D2F1 and CF-1 mouse oocytes; remark: listed apart in the source
bovine oocytes = conditions: evaluated at 5 hpa
goat oocytes = conditions: 7% ethanol activation
[4] = B6D2F1, Deme 0 (demecolcine from 0 min p.a.), 45 min p.a.
[5] = B6D2F1, Deme 0 (demecolcine from 0 min p.a.), 75 min p.a.
[6] = B6D2F1, Deme 0 (demecolcine from 0 min p.a.), 105 min p.a.
[7] = B6D2F1, Deme 0 (demecolcine from 0 min p.a.), 135 min p.a.
[8] = B6D2F1, Deme 10 (demecolcine from 10 min p.a.), 45 min p.a.
[9] = B6D2F1, Deme 10 (demecolcine from 10 min p.a.), 75 min p.a.
[10] = B6D2F1, Deme 10 (demecolcine from 10 min p.a.), 105 min p.a.
[11] = B6D2F1, Deme 10 (demecolcine from 10 min p.a.), 135 min p.a.
[12] = B6D2F1, Deme 15 (demecolcine from 15 min p.a.), 45 min p.a.
[13] = B6D2F1, Deme 15 (demecolcine from 15 min p.a.), 75 min p.a.
[14] = B6D2F1, Deme 15 (demecolcine from 15 min p.a.), 105 min p.a.
[15] = B6D2F1, Deme 15 (demecolcine from 15 min p.a.), 135 min p.a.
[16] = CF-1, Deme 0 (demecolcine from 0 min p.a.), 45 min p.a.
[17] = CF-1, Deme 0 (demecolcine from 0 min p.a.), 75 min p.a.
[18] = CF-1, Deme 0 (demecolcine from 0 min p.a.), 105 min p.a.
[19] = CF-1, Deme 0 (demecolcine from 0 min p.a.), 135 min p.a.
[20] = CF-1, Deme 5 (demecolcine from 5 min p.a.), 45 min p.a.
[21] = CF-1, Deme 5 (demecolcine from 5 min p.a.), 75 min p.a.
[22] = CF-1, Deme 5 (demecolcine from 5 min p.a.), 105 min p.a.
[23] = CF-1, Deme 5 (demecolcine from 5 min p.a.), 135 min p.a.
[24] = CF-1, Deme 10 (demecolcine from 10 min p.a.), 45 min p.a.
[25] = CF-1, Deme 10 (demecolcine from 10 min p.a.), 75 min p.a.
[26] = CF-1, Deme 10 (demecolcine from 10 min p.a.), 105 min p.a.
[27] = CF-1, Deme 10 (demecolcine from 10 min p.a.), 135 min p.a.
[28] = CF-1, Deme 15 (demecolcine from 15 min p.a.), 45 min p.a.
[29] = CF-1, Deme 15 (demecolcine from 15 min p.a.), 75 min p.a.
[30] = CF-1, Deme 15 (demecolcine from 15 min p.a.), 105 min p.a.
[31] = CF-1, Deme 15 (demecolcine from 15 min p.a.), 135 min p.a.

## CN[C@H]1CCc2cc(OC)c(OC)c(OC)c2-c2ccc(OC)c(=O)cc21 [demecolcine]
[1]; [4]
  activated oocytes: 96%
[1]; [5]
  activated oocytes: 98%
[1]; [6]
  activated oocytes: 96%
[1]; [7]
  activated oocytes: 96%
[1]; B6D2F1, Deme 5 (demecolcine from 5 min p.a.), 45 min p.a.
  activated oocytes: 98%
[1]; B6D2F1, Deme 5 (demecolcine from 5 min p.a.), 75 min p.a.
  activated oocytes: 94%
[1]; B6D2F1, Deme 5 (demecolcine from 5 min p.a.), 105 min p.a.
  activated oocytes: 100%
[1]; B6D2F1, Deme 5 (demecolcine from 5 min p.a.), 135 min p.a.
  activated oocytes: 94.5%
[1]; [8]
  activated oocytes: 94%
[1]; [9]
  activated oocytes: 98.1%
[1]; [10]
  activated oocytes: 100%
[1]; [11]
  activated oocytes: 100%
[1]; [12]
  activated oocytes: 97.9%
[1]; [13]
  activated oocytes: 96%
[1]; [14]
  activated oocytes: 94%
[1]; [15]
  activated oocytes: 98%
[1]; [16]
  activated oocytes: 92%
[1]; [17]
  activated oocytes: 98^a %
[1]; [18]
  activated oocytes: 100^a %
[1]; [19]
  activated oocytes: 95.9%
[1]; [20]
  activated oocytes: 82%
[1]; [21]
  activated oocytes: 76^b %
[1]; [22]
  activated oocytes: 84.3^b %
[1]; [23]
  activated oocytes: 98%
[1]; [24]
  activated oocytes: 80%
[1]; [25]
  activated oocytes: 84^b %
[1]; [26]
  activated oocytes: 96^a,b %
[1]; [27]
  activated oocytes: 94.7%
[1]; [28]
  activated oocytes: 94.2%
[1]; [29]
  activated oocytes: 100^a %
[1]; [30]
  activated oocytes: 96.1^a,b %
[1]; [31]
  activated oocytes: 95.9%
[1]; all groups of demecolcine-treated oocytes, both strains, 45 min p.a.
  rates of activation: 80-98%
[1]; mouse oocytes, both strains (B6D2F1, CF 1), Example 4
  activation rates: 89-10096
[2]; [4]
  activated oocytes with a partially or completely rotated spindle: 37.5^b %
[2]; [5]
  activated oocytes with a partially or completely rotated spindle: 30.6^b %
[2]; [6]
  activated oocytes with a partially or completely rotated spindle: 0^b %
[2]; [7]
  activated oocytes with a partially or completely rotated spindle: 8.3^b %
[2]; [8]
  activated oocytes with a partially or completely rotated spindle: 29.8^b %
[2]; [9]
  activated oocytes with a partially or completely rotated spindle: 47.2^b %
[2]; [10]
  activated oocytes with a partially or completely rotated spindle: 7.7^b %
[2]; [11]
  activated oocytes with a partially or completely rotated spindle: 9.6^b %
[2]; [12]
  activated oocytes with a partially or completely rotated spindle: 30.4^b %
[2]; [13]
  activated oocytes with a partially or completely rotated spindle: 41.7^b %
[2]; [14]
  activated oocytes with a partially or completely rotated spindle: 34.0^c %
[2]; [15]
  activated oocytes with a partially or completely rotated spindle: 4.O^b
[2]; B6D2F1, DemeS (demecolcine from 5 min p.a.), 45 min p.a.
  activated oocytes with a partially or completely rotated spindle: 26.5^b %
[2]; B6D2F1, DemeS (demecolcine from 5 min p.a.), 75 min p.a.
  activated oocytes with a partially or completely rotated spindle: 38.3^b %
[2]; B6D2F1, DemeS (demecolcine from 5 min p.a.), 105 min p.a.
  activated oocytes with a partially or completely rotated spindle: 3.6^b %
[2]; B6D2F1, DemeS (demecolcine from 5 min p.a.), 135 min p.a.
  activated oocytes with a partially or completely rotated spindle: 7.7^b %
[2]; [16]
  activated oocytes with a partially or completely rotated spindle: 0^b %
[2]; [17]
  activated oocytes with a partially or completely rotated spindle: 0^b %
[2]; [18]
  activated oocytes with a partially or completely rotated spindle: 0^b %
[2]; [19]
  activated oocytes with a partially or completely rotated spindle: 0^b %
[2]; [20]
  activated oocytes with a partially or completely rotated spindle: 4.4^b %
[2]; [21]
  activated oocytes with a partially or completely rotated spindle: 2.6^b.c %
[2]; [22]
  activated oocytes with a partially or completely rotated spindle: 2.3^b %
[2]; [23]
  activated oocytes with a partially or completely rotated spindle: 4^b %
[2]; [24]
  activated oocytes with a partially or completely rotated spindle: 2.5^b %
[2]; [25]
  activated oocytes with a partially or completely rotated spindle: 2.4^b,c %
[2]; [26]
  activated oocytes with a partially or completely rotated spindle: 4.2^b %
[2]; [27]
  activated oocytes with a partially or completely rotated spindle: 1.8^b %
[2]; [28]
  activated oocytes with a partially or completely rotated spindle: 6.1^b %
[2]; [29]
  activated oocytes with a partially or completely rotated spindle: 13.2^c %
[2]; [30]
  activated oocytes with a partially or completely rotated spindle: 6.1^b %
[2]; [31]
  activated oocytes with a partially or completely rotated spindle: 2.1^b %
[3]; B6D2F1
  maximum enucleation rate of total activated oocytes: 6.9%
[3]; CF-1
  maximum enucleation rate of total activated oocytes: 21%
[3]; CF-1, all activated oocytes
  overall enucleation efficiency: ~20%
Bovine oocytes; DM 0.4 μg/ml from 1, 1.5 or 2 hpa
  activation rates: 79-100%
Bovine oocytes; DM 0.4 μg/ml from 30 min pa
  activation rates: 10-16%
Goat oocytes
  activation rates: 69-94%
